Some of the results follow.

For the test, the target named is T1, OsSMF1 (Oryza sativa, UniProt Q6ZLB0 1-436).
T1 sequence: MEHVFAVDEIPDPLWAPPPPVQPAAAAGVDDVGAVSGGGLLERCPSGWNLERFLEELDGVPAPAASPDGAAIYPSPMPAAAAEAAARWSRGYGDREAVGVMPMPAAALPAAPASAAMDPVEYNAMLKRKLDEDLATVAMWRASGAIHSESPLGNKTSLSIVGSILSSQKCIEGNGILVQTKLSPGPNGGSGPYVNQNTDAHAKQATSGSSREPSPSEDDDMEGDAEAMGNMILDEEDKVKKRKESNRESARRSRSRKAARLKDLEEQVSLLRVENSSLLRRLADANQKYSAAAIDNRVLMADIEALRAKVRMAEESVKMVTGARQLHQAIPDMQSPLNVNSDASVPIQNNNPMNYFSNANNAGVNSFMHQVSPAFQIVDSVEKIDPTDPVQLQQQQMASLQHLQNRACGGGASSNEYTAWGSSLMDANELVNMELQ
As to the kind of experiment: protein-binding microarray (RPBM); PBS, 2% BSA, 51.3 ng/ul salmon testes DNA, 50 uM zinc acetate, 200 nM TF, 25 C, 1 h; high values mean tight binding. The settings on record: protein: recombinant; tags: N-terminal polyhistidine and DsRed monomer fusion (pET32a); chain copies: 2; label: CyDye5-dUTP incorporated in the synthesized complementary strand; 3' TTTTT single-stranded linker to array surface; dsDNA, one strand shown. The gist of the method:
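A custom Agilent array was converted to double-stranded form by primer extension with Cy5-dUTP and blocked with 2% BSA. Protein at 200 nM in PBS with 2% BSA, salmon testes DNA and 50 µM zinc acetate was applied for 1 h at 25 °C, followed by washing. The proteins were polyhistidine–DsRed N-terminal fusions of transcription factors, expressed in E. coli BL21-CodonPlus and Ni–NTA-purified. The binding signal is per-feature fluorescence intensity (arbitrary units) from an Axon 4000B scanner.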
“AAGCTCATCTTGTTCCGTGAGCGGGTCTATCTATTAGAGCCGGAGTCACCTAGTGCAG”: the binding signal is 3780 fluorescence intensity (a.u.).

Regarding “ACTTAACTCGTATAGGTAGAGAACCTGACCAGCTGAGCTCCGGAGTCACCTAGTGCAG”, the binding signal is 3490 fluorescence intensity (a.u.).

Take “CACACTCTCACTGTCCACGCTTGTCTTGGCCGCTTGACTACGGAGTCACCTAGTGCAG”: the binding signal was 3550 fluorescence intensity (a.u.).

On to “CGACCGACCGGACCGGACCCAACGCGCGCACCCAACTACCCGGAGTCACCTAGTGCAG”, for which the binding signal is 3440 fluorescence intensity (a.u.).

Consider “CATGCTAATGTGTACACACTATTTCATCCGTCATCACACCCGGAGTCACCTAGTGCAG”, for which the binding signal was 3980 fluorescence intensity (a.u.).

Take “TCCGCGCACGACACGTGTCCAGTCACGCTTTGAACGCTAACGGAGTCACCTAGTGCAG”: the binding signal was 11600 fluorescence intensity (a.u.).

As to “CGGTTTGTAACGGAATAGTTGATGTCAGCACGATATCGTACGGAGTCACCTAGTGCAG”, the binding signal was 7210 fluorescence intensity (a.u.).

With “CACACCCAGACGGCCGCCGTTAGCCACGCGTCCTCCCCTCCGGAGTCACCTAGTGCAG”, the binding signal is 4290 fluorescence intensity (a.u.).

As to “TGACCCTCAACCGTAAAACCGGATAGGATGACTCCCCGAACGGAGTCACCTAGTGCAG”, the binding signal is 3680 fluorescence intensity (a.u.).

For the sequence “GTATCTCGATCCTGATCAATGCTCCACATCACCGAGAAGCCGGAGTCACCTAGTGCAG”, the binding signal was 6090 fluorescence intensity (a.u.).

On to “CTCGAGTCGCCACCTGCCACGCCTCCGTCGCCGTCGCCGCCGGAGTCACCTAGTGCAG”, for which the binding signal was 5230 fluorescence intensity (a.u.).

Turning to “TCCTCCTGTCCGTCCAAGCAATCCAAACTCTCTCTTCCCTCGGAGTCACCTAGTGCAG”, the binding signal was 3910 fluorescence intensity (a.u.).

On to “CGAAGAGGTCGCTTTCTGTACCGTCTGGAAGACGTCATGTCGGAGTCACCTAGTGCAG”, for which the binding signal was 4520 fluorescence intensity (a.u.).

On to “TTTTCAGCCTCGATCAGCTCTCCTGGGGTTGGTTGGTTGGCGGAGTCACCTAGTGCAG”, for which the binding signal was 3600 fluorescence intensity (a.u.).

For “TGGGATAGGAGAGGTTAAGACTTGAGCGTGGATTTGGGTCCGGAGTCACCTAGTGCAG”, the binding signal was 3330 fluorescence intensity (a.u.).

Take “CATGCCCATCCTCGGCGCCGCCGTCACCGACTCTTGCTGACGGAGTCACCTAGTGCAG”: the binding signal is 4820 fluorescence intensity (a.u.).

Regarding “TCACCAATCACCTGCCCTCACACCAACACGCCACGCGAACCGGAGTCACCTAGTGCAG”, the binding signal was 3750 fluorescence intensity (a.u.).

With “TGGGCGATTGGGGCGGCAACCGGCCGATGACGAGGAGAAACGGAGTCACCTAGTGCAG”, the binding signal is 3230 fluorescence intensity (a.u.).

For the sequence “GGGCAGACATTCCATGCCATGTGGCTTGAGTTATGCATTGCGGAGTCACCTAGTGCAG”, the binding signal is 6590 fluorescence intensity (a.u.).

“AAATAAATAATAGGTGACGTAATCTATTAATAGTGTAGTTCGGAGTCACCTAGTGCAG”: the binding signal is 3830 fluorescence intensity (a.u.).

As for “CTCCTCCTCTGATCTTCTCCTCCTTGTCATGCGATCGAGCCGGAGTCACCTAGTGCAG”, the binding signal was 4300 fluorescence intensity (a.u.).

Consider “CGCGTCCCTTGTTGCCACGCACTACCCGAGTACTCCGCCTCGGAGTCACCTAGTGCAG”, for which the binding signal was 3780 fluorescence intensity (a.u.).

Turning to “TCCGCCGCCCTAACCAGTCACCACCGCCACCAACGCAGCGCGGAGTCACCTAGTGCAG”, the binding signal was 3600 fluorescence intensity (a.u.).
